Measurements from article PMC10163288.
The other results are listed elsewhere or left out.

B1: il2ra_site1_1z92_sap_13_mot_HHH_b2_03060_000000008_0001_1_18_H_._HHH_b1_00868_0001_0000100010_0000001_0_0001_af2pred_0001_af2pred_1 (protein)
chain: DEVLERDLRQAEKAGIPPEDAVRAVIRALAFHLRVPPEEAAEILLEILEKLGDPELAEIARELTP
B2: il2ra_site1_2b5i_sap_11_mot_HHH_b1_03854_af2_000000091_0001_42_55_H_._HHH_b2_01249_af2_0001_0000100007_0000001_0_0001_af2pred_0001_af2pred_1 (protein)
chain: SSSSNERREEALELFKRANELLRNGNPEEAHELLEEAAELARELGNRSLLKAIELALRQFESSSS
B3: il2ra_site2_2erj_sap_21_mot_HHH_b2_08311_000000098_0001_42_56_H_._HHH_b1_01434_af2_0001_0000100002_0000001_0_0001 (protein)
chain: SSSDREELEEVLRLIEEALEEGDAEALNKLIRRAIELVQRVNDPELFRILWELLREIHEKLSSSS
B4: il2ra_site1_3nfp_sap_10_mot_d8099cd8ef6a59b9c03de2010570d688_0001_af2_000000259_0001_37_51_H_._HHH_b1_03897_0001_0000100001_0000001_0_0001 (protein)
chain: SSSSSLHFVERDLEKLAKRGNEELVRRLLERFARDAERSGNPEAAEKLEEFAERVLEEAKSSSSS
B5: il2ra_site2_2erj_normal_mot_HHH_b1_06099_000000027_0001_20_36_H_._b0b48449b8979d840ab1151e5fe11a36_0001_af2_0001_0000600021_0000001_0 (protein)
chain: DEELEELAQLLRRGDREAYRLLLRLLQRIERGDPEAKEKLEEAIRLAEELGDEYVVESLEVLLRI
B6: il2ra_site1_2b5i_sap_17_mot_HHH_b2_00513_af2_000000146_0001_23_38_H_._HHH_b2_08134_0001_0000200024_0000001_0_0001_af2pred_0001_af2pred (protein)
chain: SSSSTEEQEEILRLLEEAQEADENGDPEEAERLLERALELAEEAGSPSARKFVEAALRQTSSSSS
B7: il2ra_site2_3nfp_normal_mot_HHH_b2_04230_000000235_0001_39_52_H_._HHH_b1_08287_0001_0000400025_0000001_0 (protein)
chain: SSSSSEFEKRLEELLEELEKLVREGNEEEFRRVAAEIAHLAFKGNDHEAYFRLAELAYAFYSSSS
B8: il2ra_site1_1z92_sap_27_mot_HHH_b2_05274_af2_000000237_0001_23_40_H_._HHH_b1_06755_0001_0000200009_0000001_1_0001_af2pred_0001_af2pred (protein)
chain: DIEEVLEEAAELVEEGNPEEAKRLLEELVRKTGDPALKFLLEAVEAKLKRGDLEAVRKLLERAAR
B9: il2ra_site2_2erj_normal_mot_HHH_b1_06542_af2_000000257_0001_1_17_H_._HHH_b1_04567_0001_0000500031_0000001_0 (protein)
chain: SSSSNEEEQVKAIEEDAERLEEEGDPELARAYLELAERFAERSRDEEVLRLLEKLLRELRNSSSS
B10: il2ra_site1_2b5i_normal_mot_2cbe48e66a1f39b3fed734b245ab0a04_0001_000000015_0001_17_31_H_._HHH_b2_07409_0001_0000200008_0000001_0_af2pred_dldesign_0_af2pred (protein)
chain: SSSSAATRARVRALMEEARKLAKEGKEEEVSKLLFEALYLARAARDPELAAEVEALYRELSSSSS
B11: il2ra_site2_3nfp_normal_mot_ems_p1-15H-GBL-16H-GBL-14H_0089_0001_0001_0001_af2_000000072_0001_19_33_H_._738ccc93aada9afe30a0d8950425dc90_0001_1_0001_0000100009_ … (protein)
chain: DVQAELAELAYERRDFRVFAALADILALKEQGVPPEEIEQIVEEIIKKAGLPPEIEELLRKAVEE
B12: il2ra_site2_3nfp_normal_mot_HHH_b1_00239_000000199_0001_23_39_H_._HHH_b1_01329_af2_0001_0000600038_0000001_0 (protein)
chain: SSSSDDEKHEEMVELAIRLAEEAGDEEVLEELEELLKRAREEGDFRLLLEAYALLARRYKNSSSS
B13: il2ra_site1_3nfp_normal_mot_HHH_b2_02053_000000240_0001_1_20_H_._66959ead3e6c57cb3ef8243f3eb758e0_0001_1_af2_0001_0000200018_0000001_0_af2pred_0001_af2pred_swap … (protein)
chain: SAAEILLERAVKENSESALRKFIEDLLRTFGNPEEVEKFLEELVKALGLPPEVLERLEKLLEELT
B14: il2ra_site1_2b5i_normal_mot_HHH_b1_01507_000000251_0001_20_36_H_._HHH_b2_06566_af2_0001_0000300022_0000001_0_af2pred_dldesign_0_af2pred (protein)
chain: SSSSSPEDAKRIRELVKKADELFKAGKEEEARKALEEALKLAKENNMTGTAKFLEACLASLSSSS
B15: il2ra_site2_3nfp_normal_mot_HHH_b2_00615_000000276_0001_1_15_H_._HHH_b2_03465_0001_0000600023_0000001_0 (protein)
chain: SSSSDNLEVWELLREALEALREGNPEEAREILEEAEKIAKENNSRVARRAVETVKENIEFGSSSS
B16: il2ra_site1_1z92_sap_25_mot_4a166e40179e6c064b671d174dbdc8c6_0001_000000090_0001_35_49_H_._493e05f641973f3adf044177f88ae147_0001_0001_0000100019_0000001_0_0001 (protein)
chain: TRKELQKMIEELREEGVPPEEIVKILLELVEKDAGDPRLALQFLKRLLKKLGDPELLRVLEELIK
B17: il2ra_site1_2b5i_normal_mot_HHH_b1_02810_af2_000000252_0001_1_19_H_._HHH_b1_06010_af2_0001_0000300034_0000001_0_af2pred_dldesign_0_af2pred (protein)
chain: SSSSSSEEEVYELYKEALRLRKQGKYEEAKKVLEKALELAKELGLETKVKELEELLERLKSSSSS
B18: il2ra_site1_1z92_sap_14_mot_cda1634bf71a07e6bb6bfbc1e51fcdca_0001_af2_000000299_0001_1_14_H_._HHH_b1_03988_0001_0000300022_0000001_0_0001_af2pred_0001_af2pred (protein)
chain: DVEELLKLARELGDEEVVEVAEILAHQLELRPDDTAARFAVEQLLKLLEEDPERAKKMAELSLRS

biological target: il2ra, P01589; experiment: yeast display titration

Apparent Kd, inactive:
B1 no binding seen
B2 no binding seen
B3 no binding seen
B4 no binding seen
B5 no binding seen
B6 no binding seen
B7 no binding seen
B8 no binding seen
B9 no binding seen
B10 no binding seen
B11 no binding seen
B12 no binding seen
B13 no binding seen
B14 no binding seen
B15 no binding seen
B16 no binding seen
B17 no binding seen
B18 no binding seen

A portion of the results above, as a working copy:
Apparent Kd, inactive:
B10 no binding seen
B11 no binding seen
